Results published in PubChem BioAssay AID248 (DTP/NCI, 2004).
The list shows only some results of the screen, not a fair sample: it is rich in T/C values a quarter to a half above the control, in often repeated tests (any T/C) and in doses without a T/C. Other doses and runs of a compound stand elsewhere. T/C: endpoint of the treated group in % of that of the vehicle group. Some entries give survivors of the animals treated and no T/C: the source files T/C as zero there, which appears to mark a toxic dose or a test without result, not a measured value. Some doses without a T/C left all or most animals alive at the check, yet need not have been tolerated: the source hardly ever lists a survival T/C far under the control, and the zero likely stands for such cases as well. Survivors were counted at the toxicity check, usually on the fifth day, unless a day is given; later deaths do not show. Schedules are NCI's codes, read here as Q, the interval in days (D) or hours (H), X, the number of doses. Some entries hold several experiments; the results are listed from low to high. Some schedules carry Z or #; the key to these is not given. Where survival is the endpoint, the PubChem record calls one and a half times the control and up active, and a quarter to a half above the control has no call in these data; cut-offs in other NCI protocols can differ. Some T/C values are followed by the survivors on the day toxicity was checked, most often the fifth; where none is given, no animal had died by that day. Marks such as (2×) count equal records among those shown.

Tested on: L1210 leukemia ip in BDF1 mice, survival T/C
Experiment: NCI In Vivo Anticancer Drug Screen. Data for tumor model L1210 Leukemia (intraperitoneal) in B6D2F1 (BDF1) mice
Settings: T/C endpoint: mean survival time, higher T/C = longer survival
[1] = dose: 3200.0 mg/kg/injection, schedule: Q01DX010 (ip), vehicle: saline

Question: What does the source list for `O=c1cnn(C2OC(CO)C(O)C2O)c(=O)[nH]1` (centres undefined)?
Answer: survivor count (dose: 25.0 mg/kg/injection, schedule: Q01DX006 (iv), vehicle: saline): 3 of 6; T/C (dose: 32.0 mg/kg/injection, schedule: Q01DX009 (ip), vehicle: saline): 146 % of control; T/C (dose: 50.0 mg/kg/injection, schedule: Q01DX006 (iv), vehicle: saline): 134 % of control; T/C (dose: 50.0 mg/kg/injection, schedule: Q01DX010 (ip), vehicle: saline): 137 % of control; T/C (dose: 50.0 mg/kg/injection, schedule: Q01DX Z (oral), vehicle: saline): 136 % of control; T/C (dose: 50.0 mg/kg/injection, schedule: Q#A X Z (ip), vehicle: other): 138 % of control; T/C (dose: 64.0 mg/kg/injection, schedule: Q01DX009 (ip), vehicle: saline): 139 % of control; T/C (dose: 64.0 mg/kg/injection, schedule: Q01DX009 (oral), vehicle: saline): 145 % of control; T/C (dose: 75.0 mg/kg/injection, schedule: Q01DX009 (ip), vehicle: saline): 142 % of control; T/C (dose: 75.0 mg/kg/injection, schedule: Q01DX009 (oral), vehicle: saline): 143 % of control; T/C (dose: 75.0 mg/kg/injection, schedule: Q01DX009 (sc), vehicle: saline): 135 % of control; T/C (dose: 75.0 mg/kg/injection, schedule: Q03DX Z (ip), vehicle: saline): 148 % of control; T/C (dose: 100.0 mg/kg/injection, schedule: Q01DX006 (iv), vehicle: saline): 129 % of control; T/C (dose: 100.0 mg/kg/injection, schedule: Q01DX010 (ip), vehicle: saline): 130 % of control; T/C (dose: 100.0 mg/kg/injection, schedule: Q01DX Z (im), vehicle: saline): 140 % of control; T/C (dose: 100.0 mg/kg/injection, schedule: Q01DX Z (ip), vehicle: methylcellulose (MC)): 131 and 134 % of control; T/C (dose: 100.0 mg/kg/injection, schedule: Q01DX Z (ip), vehicle: saline): 147 % of control; T/C (dose: 100.0 mg/kg/injection, schedule: Q01DX Z (oral), vehicle: other): 144 % of control; T/C (dose: 100.0 mg/kg/injection, schedule: Q#A X Z (ip), vehicle: other): 145 % of control; T/C (dose: 128.0 mg/kg/injection, schedule: Q01DX009 (ip), vehicle: saline): 134 % of control; T/C (dose: 128.0 mg/kg/injection, schedule: Q01DX009 (oral), vehicle: saline): 146 % of control; T/C (dose: 128.0 mg/kg/injection, schedule: Q03HX016 (ip), vehicle: saline): 136 % of control; T/C (dose: 150.0 mg/kg/injection, schedule: Q01DX009 (ip), vehicle: saline): 136 % of control; T/C (dose: 150.0 mg/kg/injection, schedule: Q01DX009 (oral), vehicle: saline): 138 % of control; T/C (dose: 150.0 mg/kg/injection, schedule: Q01DX009 (sc), vehicle: saline): 129 % of control; T/C (dose: 150.0 mg/kg/injection, schedule: Q03DX Z (ip), vehicle: saline): 140 % of control; T/C (dose: 200.0 mg/kg/injection, schedule: Q01DX006 (iv), vehicle: saline): 129 % of control; T/C (dose: 200.0 mg/kg/injection, schedule: Q01DX009 (ip), vehicle: saline): 125 % of control; T/C (dose: 200.0 mg/kg/injection, schedule: Q01DX010 (ip), vehicle: saline): 124, 127, 137, 140, 143, 156 % of control; T/C (dose: 200.0 mg/kg/injection, schedule: Q01DX Z (im), vehicle: saline): 139 % of control; T/C (dose: 200.0 mg/kg/injection, schedule: Q01DX Z (ip), vehicle: methylcellulose (MC)): 114, 131, 132 (2×), 145 % of control; T/C (dose: 200.0 mg/kg/injection, schedule: Q01DX Z (ip), vehicle: saline): 134 % of control; T/C (dose: 200.0 mg/kg/injection, schedule: Q01DX Z (oral), vehicle: other): 142 % of control; T/C (dose: 200.0 mg/kg/injection, schedule: Q01DX Z (oral), vehicle: saline): 140 % of control; T/C (dose: 200.0 mg/kg/injection, schedule: Q#A X Z (ip), vehicle: other): 145 % of control; T/C (dose: 256.0 mg/kg/injection, schedule: Q01DX009 (ip), vehicle: saline): 143 % of control; T/C (dose: 256.0 mg/kg/injection, schedule: Q01DX009 (oral), vehicle: saline): 147 % of control; T/C (dose: 256.0 mg/kg/injection, schedule: Q03HX016 (oral), vehicle: saline): 143 % of control; T/C (dose: 268.0 mg/kg/injection, schedule: Q01DX009 (ip), vehicle: saline, evaluated on day 5): 125 % of control; T/C (dose: 268.0 mg/kg/injection, schedule: Q01DX009 (ip), vehicle: saline, evaluated on day 60): 125 % of control; T/C (dose: 300.0 mg/kg/injection, schedule: Q01DX009 (ip), vehicle: saline): 137 % of control; T/C (dose: 300.0 mg/kg/injection, schedule: Q01DX009 (sc), vehicle: saline): 140 % of control; T/C (dose: 300.0 mg/kg/injection, schedule: Q01DX Z (ip), vehicle: methylcellulose (MC)): 134 and 137 % of control; T/C (dose: 300.0 mg/kg/injection, schedule: Q03DX Z (ip), vehicle: saline): 127 % of control; T/C (dose: 400.0 mg/kg/injection, schedule: Q01DX006 (iv), vehicle: saline): 135 % of control; T/C (dose: 400.0 mg/kg/injection, schedule: Q01DX009 (ip), vehicle: saline, evaluated on day 5): 128 % of control; T/C (dose: 400.0 mg/kg/injection, schedule: Q01DX009 (ip), vehicle: saline, evaluated on day 30): 125 % of control; T/C (dose: 400.0 mg/kg/injection, schedule: Q01DX009 (ip), vehicle: saline, evaluated on day 60): 129 % of control; T/C (dose: 400.0 mg/kg/injection, schedule: Q01DX010 (ip), vehicle: saline): 128 (2×) and 129 % of control (2×); T/C (dose: 400.0 mg/kg/injection, schedule: Q01DX Z (im), vehicle: saline): 139 % of control; T/C (dose: 400.0 mg/kg/injection, schedule: Q01DX Z (ip), vehicle: saline): 147 % of control; T/C (dose: 400.0 mg/kg/injection, schedule: Q01DX Z (oral), vehicle: other): 135 % of control; T/C (dose: 400.0 mg/kg/injection, schedule: Q#A X Z (ip), vehicle: other): 132 % of control; T/C (dose: 450.0 mg/kg/injection, schedule: Q01DX Z (ip), vehicle: methylcellulose (MC)): 124, 125, 128, 134 % of control; T/C (dose: 600.0 mg/kg/injection, schedule: Q01DX009 (ip), vehicle: saline, evaluated on day 5): 131 % of control; T/C (dose: 600.0 mg/kg/injection, schedule: Q01DX009 (ip), vehicle: saline, evaluated on day 40): 127 % of control; T/C (dose: 600.0 mg/kg/injection, schedule: Q01DX009 (ip), vehicle: saline, evaluated on day 60): 132 % of control; T/C (dose: 600.0 mg/kg/injection, schedule: Q01DX009 (sc), vehicle: saline): 126 % of control; T/C (dose: 600.0 mg/kg/injection, schedule: Q03DX Z (ip), vehicle: other): 125 % of control; T/C (dose: 600.0 mg/kg/injection, schedule: Q03DX Z (ip), vehicle: saline): 148 % of control; T/C (dose: 600.0 mg/kg/injection, schedule: Q## X024 (ip), vehicle: saline): 146 % of control; T/C (dose: 675.0 mg/kg/injection, schedule: Q01DX Z (ip), vehicle: methylcellulose (MC)): 134 and 139 % of control; T/C (dose: 800.0 mg/kg/injection, schedule: Q01DX006 (iv), vehicle: saline): 127 % of control [5 of 6 alive]; T/C (dose: 800.0 mg/kg/injection, schedule: Q01DX010 (ip), vehicle: saline): 124, 131, 133, 153 % of control; T/C (dose: 800.0 mg/kg/injection, schedule: Q01DX Z (ip), vehicle: methylcellulose (MC)): 135 and 140 % of control; T/C (dose: 800.0 mg/kg/injection, schedule: Q01DX Z (ip), vehicle: saline): 137 % of control; T/C (dose: 800.0 mg/kg/injection, schedule: Q01DX Z (oral), vehicle: other): 132 % of control; T/C (dose: 800.0 mg/kg/injection, schedule: Q01DX Z (oral), vehicle: saline): 136 % of control; T/C (dose: 1200.0 mg/kg/injection, schedule: Q01DX001 (ip), vehicle: saline): 139 % of control; T/C (dose: 1200.0 mg/kg/injection, schedule: Q01DX005 (ip), vehicle: saline): 129 % of control; T/C (dose: 1200.0 mg/kg/injection, schedule: Q03DX Z (ip), vehicle: saline): 130 % of control; T/C (dose: 1200.0 mg/kg/injection, schedule: Q## X016 (ip), vehicle: saline): 138 % of control; T/C (dose: 1400.0 mg/kg/injection, schedule: Q07DX Z (ip), vehicle: saline): 142 % of control; survivor count (dose: 1600.0 mg/kg/injection, schedule: Q01DX006 (iv), vehicle: saline): 1 of 6; T/C (dose: 1600.0 mg/kg/injection, schedule: Q01DX010 (ip), vehicle: saline): 95, 112 [5 of 6 alive], 113, 168 % of control; T/C (dose: 1600.0 mg/kg/injection, schedule: Q01DX Z (im), vehicle: saline): 128 % of control; T/C (dose: 1600.0 mg/kg/injection, schedule: Q01DX Z (ip), vehicle: saline): 134 % of control; survivor count (dose: 1600.0 mg/kg/injection, schedule: Q#A X Z (ip), vehicle: saline): 5 of 6; T/C (dose: 2048.0 mg/kg/injection, schedule: Q03HX016 (oral), vehicle: saline): 147 % of control; T/C (dose: 2400.0 mg/kg/injection, schedule: Q01DX001 (ip), vehicle: saline): 139 % of control; T/C (dose: 2400.0 mg/kg/injection, schedule: Q03DX Z (ip), vehicle: saline): 133 and 142 % of control; T/C (dose: 2400.0 mg/kg/injection, schedule: Q## X003 (ip), vehicle: saline): 128 % of control; T/C (dose: 2400.0 mg/kg/injection, schedule: Q## X008 (ip), vehicle: saline): 126 % of control; T/C (dose: 2400.0 mg/kg/injection, schedule: Q## X016 (ip), vehicle: saline): 135 % of control; T/C (dose: 2800.0 mg/kg/injection, schedule: Q01DX001 (ip), vehicle: saline): 127 % of control; T/C (dose: 2800.0 mg/kg/injection, schedule: Q07DX Z (ip), vehicle: saline): 125 % of control; survivor count (dose: 3200.0 mg/kg/injection, schedule: Q01DX006 (iv), vehicle: saline): 3 of 6; T/C [1]: 93 and 142 % of control; survivor count [1]: 5 of 6 and 6 of 6; survivor count (dose: 3200.0 mg/kg/injection, schedule: Q01DX Z (ip), vehicle: saline): 6 of 6; survivor count (dose: 3200.0 mg/kg/injection, schedule: Q01DX Z (oral), vehicle: other): 7 of 7; survivor count (dose: 3200.0 mg/kg/injection, schedule: Q01DX Z (oral), vehicle: saline): 5 of 6; T/C (dose: 4800.0 mg/kg/injection, schedule: Q03DX Z (ip), vehicle: saline): 144 % of control; T/C (dose: 5600.0 mg/kg/injection, schedule: Q07DX Z (ip), vehicle: other): 132 % of control
